In the supplement of paper PMC10849652:
The list shows a part of the results.

The chains behind the UniProt entries cited, without tags or fusion partners. Where a name states a change or a piece, a line headed by the entry shows the natural chain unless it says otherwise.
UniProt Q8N6T7, whole entry, looked up: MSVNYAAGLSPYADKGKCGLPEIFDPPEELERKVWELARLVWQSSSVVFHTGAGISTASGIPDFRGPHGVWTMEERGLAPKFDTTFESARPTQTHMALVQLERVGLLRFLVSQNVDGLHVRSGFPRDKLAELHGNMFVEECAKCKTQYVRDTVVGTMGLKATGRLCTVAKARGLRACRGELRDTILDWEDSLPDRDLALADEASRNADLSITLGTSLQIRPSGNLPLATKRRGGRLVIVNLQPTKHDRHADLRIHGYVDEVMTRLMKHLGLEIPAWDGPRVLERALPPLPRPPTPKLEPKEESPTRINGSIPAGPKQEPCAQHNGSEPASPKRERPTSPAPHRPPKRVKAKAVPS
UniProt P49281: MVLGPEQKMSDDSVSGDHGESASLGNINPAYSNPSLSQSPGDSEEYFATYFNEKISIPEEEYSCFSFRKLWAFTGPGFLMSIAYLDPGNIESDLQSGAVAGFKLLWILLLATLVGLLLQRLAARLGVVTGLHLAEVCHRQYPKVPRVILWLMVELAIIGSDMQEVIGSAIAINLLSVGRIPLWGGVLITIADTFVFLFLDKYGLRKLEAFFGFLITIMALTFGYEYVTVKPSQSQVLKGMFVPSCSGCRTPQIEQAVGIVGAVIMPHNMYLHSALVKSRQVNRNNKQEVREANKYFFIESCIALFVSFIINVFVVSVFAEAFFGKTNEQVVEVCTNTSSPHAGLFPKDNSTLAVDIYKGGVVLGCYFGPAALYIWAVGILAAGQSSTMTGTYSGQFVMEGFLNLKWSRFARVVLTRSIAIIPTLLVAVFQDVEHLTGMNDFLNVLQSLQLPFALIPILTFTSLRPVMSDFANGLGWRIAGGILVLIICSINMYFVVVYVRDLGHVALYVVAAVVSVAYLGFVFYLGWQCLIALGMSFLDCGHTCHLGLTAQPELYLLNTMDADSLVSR
UniProt Q99720, whole entry, looked up: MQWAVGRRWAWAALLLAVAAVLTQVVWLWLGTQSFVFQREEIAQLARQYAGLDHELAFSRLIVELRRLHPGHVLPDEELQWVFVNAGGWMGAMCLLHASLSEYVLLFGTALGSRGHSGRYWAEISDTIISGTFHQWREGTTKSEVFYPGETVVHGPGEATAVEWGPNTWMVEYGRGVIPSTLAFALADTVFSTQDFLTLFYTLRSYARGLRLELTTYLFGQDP
UniProt O95562: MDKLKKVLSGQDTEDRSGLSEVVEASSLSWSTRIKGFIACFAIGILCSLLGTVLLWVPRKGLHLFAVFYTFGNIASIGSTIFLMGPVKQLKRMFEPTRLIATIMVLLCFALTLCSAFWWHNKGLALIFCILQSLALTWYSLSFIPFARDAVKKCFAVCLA
UniProt Q8IW75: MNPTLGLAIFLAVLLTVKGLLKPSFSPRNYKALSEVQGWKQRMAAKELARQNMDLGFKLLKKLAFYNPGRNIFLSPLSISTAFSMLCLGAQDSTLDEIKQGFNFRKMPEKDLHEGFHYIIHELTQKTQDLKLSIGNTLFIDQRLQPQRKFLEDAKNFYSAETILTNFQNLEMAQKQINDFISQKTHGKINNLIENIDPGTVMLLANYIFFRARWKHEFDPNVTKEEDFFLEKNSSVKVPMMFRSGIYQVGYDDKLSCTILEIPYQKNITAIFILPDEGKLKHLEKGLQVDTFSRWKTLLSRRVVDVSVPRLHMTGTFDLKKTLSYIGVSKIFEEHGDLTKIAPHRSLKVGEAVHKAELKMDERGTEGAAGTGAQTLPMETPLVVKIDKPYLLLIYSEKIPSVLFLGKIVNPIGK
UniProt Q96ST3: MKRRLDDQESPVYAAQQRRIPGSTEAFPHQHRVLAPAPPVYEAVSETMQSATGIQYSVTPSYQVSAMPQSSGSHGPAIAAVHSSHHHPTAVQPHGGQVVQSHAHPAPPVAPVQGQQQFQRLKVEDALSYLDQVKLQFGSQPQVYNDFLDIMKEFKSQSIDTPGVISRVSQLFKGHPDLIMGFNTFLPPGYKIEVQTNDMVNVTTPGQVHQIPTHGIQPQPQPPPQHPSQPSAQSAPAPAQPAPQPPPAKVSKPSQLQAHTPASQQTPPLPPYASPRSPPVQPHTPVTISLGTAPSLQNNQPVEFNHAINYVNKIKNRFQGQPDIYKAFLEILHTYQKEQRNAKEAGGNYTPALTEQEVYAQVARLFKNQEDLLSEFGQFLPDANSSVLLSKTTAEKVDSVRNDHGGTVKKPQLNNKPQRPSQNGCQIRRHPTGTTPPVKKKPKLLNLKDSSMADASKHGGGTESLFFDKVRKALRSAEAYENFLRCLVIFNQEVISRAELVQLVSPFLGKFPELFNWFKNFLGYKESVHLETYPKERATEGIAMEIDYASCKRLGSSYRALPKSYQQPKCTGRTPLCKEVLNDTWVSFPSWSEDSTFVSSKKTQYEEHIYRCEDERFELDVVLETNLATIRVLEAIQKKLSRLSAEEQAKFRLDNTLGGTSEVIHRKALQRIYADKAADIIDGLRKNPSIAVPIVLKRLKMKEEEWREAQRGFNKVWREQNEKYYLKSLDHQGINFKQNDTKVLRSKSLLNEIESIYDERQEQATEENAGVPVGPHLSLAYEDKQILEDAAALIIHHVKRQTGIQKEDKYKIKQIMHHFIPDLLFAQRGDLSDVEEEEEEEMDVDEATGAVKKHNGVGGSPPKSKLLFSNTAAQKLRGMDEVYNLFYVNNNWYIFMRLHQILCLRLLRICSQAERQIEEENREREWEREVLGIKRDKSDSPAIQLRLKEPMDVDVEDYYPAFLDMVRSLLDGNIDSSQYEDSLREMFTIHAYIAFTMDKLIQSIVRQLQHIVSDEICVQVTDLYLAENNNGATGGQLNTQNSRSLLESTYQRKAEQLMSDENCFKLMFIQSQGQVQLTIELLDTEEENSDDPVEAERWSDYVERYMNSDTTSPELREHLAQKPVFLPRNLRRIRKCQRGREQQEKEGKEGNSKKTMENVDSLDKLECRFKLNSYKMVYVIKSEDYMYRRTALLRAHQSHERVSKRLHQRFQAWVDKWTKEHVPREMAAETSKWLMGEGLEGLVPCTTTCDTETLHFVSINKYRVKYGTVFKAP
UniProt Q9BXP2: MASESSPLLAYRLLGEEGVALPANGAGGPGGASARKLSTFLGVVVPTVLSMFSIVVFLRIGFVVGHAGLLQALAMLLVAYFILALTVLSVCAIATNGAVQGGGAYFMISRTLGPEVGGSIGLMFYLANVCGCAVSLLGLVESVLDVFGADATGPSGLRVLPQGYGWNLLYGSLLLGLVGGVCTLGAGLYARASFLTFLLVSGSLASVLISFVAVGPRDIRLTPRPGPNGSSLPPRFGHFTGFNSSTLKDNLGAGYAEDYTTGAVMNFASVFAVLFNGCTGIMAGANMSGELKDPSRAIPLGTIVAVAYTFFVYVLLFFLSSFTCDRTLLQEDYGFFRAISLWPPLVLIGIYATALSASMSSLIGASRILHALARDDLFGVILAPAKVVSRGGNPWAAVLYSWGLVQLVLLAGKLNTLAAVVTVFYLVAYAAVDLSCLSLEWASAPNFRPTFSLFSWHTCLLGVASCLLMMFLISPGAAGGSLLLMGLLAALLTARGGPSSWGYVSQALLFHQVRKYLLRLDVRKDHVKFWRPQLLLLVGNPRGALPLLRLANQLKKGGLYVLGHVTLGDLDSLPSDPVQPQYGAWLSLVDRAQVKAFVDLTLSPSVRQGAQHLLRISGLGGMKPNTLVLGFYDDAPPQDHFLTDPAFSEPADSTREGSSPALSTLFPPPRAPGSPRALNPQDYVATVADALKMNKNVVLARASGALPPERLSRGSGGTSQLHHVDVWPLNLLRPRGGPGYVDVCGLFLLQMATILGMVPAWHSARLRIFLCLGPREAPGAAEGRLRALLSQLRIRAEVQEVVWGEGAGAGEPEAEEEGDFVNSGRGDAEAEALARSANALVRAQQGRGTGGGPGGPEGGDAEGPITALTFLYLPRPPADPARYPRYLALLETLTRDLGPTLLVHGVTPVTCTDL
UniProt Q86XK3: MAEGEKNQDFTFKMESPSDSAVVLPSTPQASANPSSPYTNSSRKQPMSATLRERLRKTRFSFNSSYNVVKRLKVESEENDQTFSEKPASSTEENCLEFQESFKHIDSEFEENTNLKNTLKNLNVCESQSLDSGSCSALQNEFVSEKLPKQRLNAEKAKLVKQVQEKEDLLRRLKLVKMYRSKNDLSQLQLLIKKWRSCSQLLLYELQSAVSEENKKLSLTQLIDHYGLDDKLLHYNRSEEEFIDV
UniProt Q12874: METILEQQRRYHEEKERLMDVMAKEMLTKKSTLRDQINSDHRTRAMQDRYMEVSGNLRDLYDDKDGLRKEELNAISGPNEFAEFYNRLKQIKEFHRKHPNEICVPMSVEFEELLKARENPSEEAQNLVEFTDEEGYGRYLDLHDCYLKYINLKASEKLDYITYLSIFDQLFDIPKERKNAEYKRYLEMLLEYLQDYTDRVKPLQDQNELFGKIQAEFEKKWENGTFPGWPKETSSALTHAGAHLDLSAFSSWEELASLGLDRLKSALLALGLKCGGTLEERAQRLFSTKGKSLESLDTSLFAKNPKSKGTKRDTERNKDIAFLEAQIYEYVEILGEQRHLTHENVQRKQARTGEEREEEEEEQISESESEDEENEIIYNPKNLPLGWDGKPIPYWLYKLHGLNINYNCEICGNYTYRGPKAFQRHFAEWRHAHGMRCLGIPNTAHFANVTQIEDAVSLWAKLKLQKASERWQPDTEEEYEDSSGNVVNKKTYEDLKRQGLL
UniProt Q53H47: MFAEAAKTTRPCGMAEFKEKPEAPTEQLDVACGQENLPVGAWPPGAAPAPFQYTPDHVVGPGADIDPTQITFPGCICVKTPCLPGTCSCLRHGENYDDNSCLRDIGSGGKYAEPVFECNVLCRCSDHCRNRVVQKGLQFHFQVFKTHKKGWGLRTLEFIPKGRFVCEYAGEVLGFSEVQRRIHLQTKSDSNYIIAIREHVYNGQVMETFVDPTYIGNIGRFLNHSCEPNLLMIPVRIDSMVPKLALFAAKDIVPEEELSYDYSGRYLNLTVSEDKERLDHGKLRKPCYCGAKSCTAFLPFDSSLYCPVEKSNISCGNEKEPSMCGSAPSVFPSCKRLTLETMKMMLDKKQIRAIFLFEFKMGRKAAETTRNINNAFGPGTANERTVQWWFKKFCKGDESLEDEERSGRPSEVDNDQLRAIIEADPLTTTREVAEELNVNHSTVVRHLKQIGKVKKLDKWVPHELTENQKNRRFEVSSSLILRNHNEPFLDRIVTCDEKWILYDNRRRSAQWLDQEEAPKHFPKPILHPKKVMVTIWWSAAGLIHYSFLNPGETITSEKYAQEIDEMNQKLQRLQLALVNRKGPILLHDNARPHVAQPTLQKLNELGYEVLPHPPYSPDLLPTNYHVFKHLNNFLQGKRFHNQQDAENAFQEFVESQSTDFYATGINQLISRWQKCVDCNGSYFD
UniProt Q9UJC5: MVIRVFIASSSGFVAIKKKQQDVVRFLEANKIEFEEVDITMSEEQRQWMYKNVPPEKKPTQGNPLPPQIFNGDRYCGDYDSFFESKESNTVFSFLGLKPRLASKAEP
UniProt Q9UQ13: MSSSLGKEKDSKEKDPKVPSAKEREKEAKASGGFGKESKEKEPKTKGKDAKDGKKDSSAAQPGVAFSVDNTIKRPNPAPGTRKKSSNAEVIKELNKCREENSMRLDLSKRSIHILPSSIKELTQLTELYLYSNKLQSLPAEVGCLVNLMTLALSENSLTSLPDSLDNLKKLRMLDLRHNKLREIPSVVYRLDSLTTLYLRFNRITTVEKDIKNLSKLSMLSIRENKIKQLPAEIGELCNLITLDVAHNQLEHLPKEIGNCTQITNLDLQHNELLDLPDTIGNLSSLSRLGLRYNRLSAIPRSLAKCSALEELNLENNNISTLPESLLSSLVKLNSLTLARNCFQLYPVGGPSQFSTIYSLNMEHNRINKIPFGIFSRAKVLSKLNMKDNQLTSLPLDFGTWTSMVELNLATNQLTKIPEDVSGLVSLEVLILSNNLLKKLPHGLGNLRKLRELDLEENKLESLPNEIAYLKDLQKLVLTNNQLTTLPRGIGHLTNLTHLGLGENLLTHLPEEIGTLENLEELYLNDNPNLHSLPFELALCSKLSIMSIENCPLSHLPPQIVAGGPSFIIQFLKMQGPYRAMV
UniProt Q9NRX5: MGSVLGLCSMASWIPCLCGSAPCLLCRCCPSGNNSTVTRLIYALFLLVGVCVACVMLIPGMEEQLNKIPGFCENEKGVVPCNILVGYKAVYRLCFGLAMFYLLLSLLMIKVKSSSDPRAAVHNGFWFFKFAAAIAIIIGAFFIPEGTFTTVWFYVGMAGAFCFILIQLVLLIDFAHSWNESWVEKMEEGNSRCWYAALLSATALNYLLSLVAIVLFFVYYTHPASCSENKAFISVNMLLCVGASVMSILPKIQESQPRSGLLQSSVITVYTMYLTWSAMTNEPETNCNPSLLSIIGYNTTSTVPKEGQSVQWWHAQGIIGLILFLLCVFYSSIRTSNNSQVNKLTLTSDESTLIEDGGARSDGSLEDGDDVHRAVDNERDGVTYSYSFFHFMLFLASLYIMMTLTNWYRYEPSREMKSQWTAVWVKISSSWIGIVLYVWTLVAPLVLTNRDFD
UniProt Q9BWJ5: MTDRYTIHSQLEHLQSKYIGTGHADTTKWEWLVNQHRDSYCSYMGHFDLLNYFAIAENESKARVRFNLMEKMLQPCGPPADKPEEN

Experiments:
Assay in all cases: log2 fold change, soluble protein after heating vs DMSO (PISA); higher = thermal stabilisation; K562 lysate, 10 uM; active = over 0.2 and 3.5 SD of the protein, either way, in both replicates (recomputed)
[1] = compound: C=CC(=O)N1CCC[C@@H](n2nc(-c3ccc(Oc4ccccc4)cc3)c3c(N)ncnc32)C1 [ibrutinib]
Summary of the method: (§1)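 Log-two fold change in thermal stability relative to solvent controls is reported from duplicates. For each sample, crude K562 extract from dounce-homogenised pellets in PBS pH 7.4 with 1 mM MgCl2, at 1 mg/mL protein, was treated with 10 μM compound for 30 min. Aliquots heated for 3 min across 48°C-58°C were pooled, brought to 0.5% NP-40 at 4°C and cleared at 21,000xg for 90 min. The supernatant was quantified by TMTpro 16plex LC-MS/MS with channel sums equalised.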

[2] = compound: CC(=O)c1cnc2ccc(-c3cc(Cl)c(O)c(Cl)c3)nc2c1N[C@H]1CC[C@H](CN(C)C)CC1
Summary of the method: as §1

[3] = compound: CC(C)(C)Cn1c(N)nc2ccc(-c3[nH]c(C(C)(C)C)nc3-c3ccc(F)cc3)nc21 [ralimetinib]
Summary of the method: as §1

[4] = compound: CC(C)(O)CC(=O)NCCn1ccc2ncnc(Nc3ccc(Oc4cccc(C(F)(F)F)c4)c(Cl)c3)c21
Summary of the method: as §1

[5] = compound: CC(C)C1=C2N=C(C=C(N2N=C1)NCC3=CC=CC=C3)NCCCCCCN
Summary of the method: as §1

[6] = compound: CC1=C(C(CC(=O)N1)C2=CC=C(C=C2)C(F)(F)F)C(=O)NC3=C(C=C4C(=C3)C=NN4)F
Summary of the method: as §1

[7] = compound: CC1=C(C2=C(C=C1)C(=O)C3=CC=CC=C3N2CCCN)C
Summary of the method: as §1

[8] = compound: CC1=C(C=C(C=C1)NC(=O)C2=CC(=CC=C2)C(C)(C)C#N)NC3=CC4=C(C=C3)N=CN(C4=O)C
Summary of the method: as §1

[9] = compound: CC1=C(C=C(C=C1)NC(=O)C2=CC(=CC=C2)N(C)C)NC(=O)C3=CC=C(C=C3)O
Summary of the method: as §1

[10] = compound: CC1=CC=C(C=C1)SC2=C3C=C(SC3=CN=C2)C(=O)N
Summary of the method: as §1

Measured: log2 fold change

SIRT6 (UniProt Q8N6T7)
inactive: [1] -0.05 | [2] -0.027 | [3] -0.066 | [4] -0.161 | [5] 0.015 | [6] -0.043 | [7] -0.022 | [8] 0.132 | [9] 0.356 | [10] 0.244

SLC11A2 isoform 3 (UniProt P49281)
inactive: [1] -0.032 | [2] -0.018 | [3] -0.038 | [4] -0.093 | [5] 0.017 | [6] 0.242 | [7] -0.001 | [8] 0.094 | [9] 0.001 | [10] 0.003

SGTB (UniProt Q96EQ0)
inactive: [1] 0.034 | [2] 0.01 | [3] -0.018 | [4] -0.002 | [5] 0.036 | [6] 0.001 | [7] 0.031 | [8] 0.026 | [9] -0.028 | [10] -0.021

SETD3 (UniProt Q86TU7)
inactive: [1] -0.001 | [2] -0.012 | [3] -0.004 | [4] 0.015 | [5] -0.009 | [6] 0.027 | [7] 0 | [8] -0.022 | [9] 0.037 | [10] 0.012

SHROOM1 (UniProt Q2M3G4)
inactive: [1] -0.039 | [2] 0.043 | [3] -0.022 | [4] -0.095 | [5] -0.053 | [6] -0.012 | [7] 0.025 | [8] -0.047 | [9] 0.052 | [10] -0.103

SH3GL3 isoform 3 (UniProt Q99963)
inactive: [1] 0.042 | [2] -0.104 | [3] -0.014 | [4] 0.004 | [5] 0.001 | [6] -0.017 | [7] -0.045 | [8] 0.027 | [9] 0.042 | [10] -0.102

SIGMAR1 (UniProt Q99720)
inactive: [1] 0.022 | [2] 0.029 | [3] 0.034 | [4] -0.011 | [5] -0.034 | [6] 0.047 | [7] -0.036 | [8] 0.06 | [9] -0.009 | [10] -0.004

SERPINB13 (UniProt Q9UIV8)
inactive: [1] -0.139

SERPINH1 (UniProt P50454)
inactive: [1] -0.003 | [2] -0.012 | [3] -0.024 | [4] -0.028 | [5] 0 | [6] -0.022 | [7] 0.004 | [8] -0.004 | [9] -0.006 | [10] -0.004

SFT2D2 (UniProt O95562)
inactive: [1] 0.08 | [2] 0.003 | [3] 0.009 | [4] 0.007 | [5] -0.072 | [6] 0.039 | [7] -0.049 | [8] -0.08 | [9] 0.046 | [10] -0.04

SERPINA12 (UniProt Q8IW75)
inactive: [1] -0.292 | [2] -0.032 | [3] -0.296 | [4] 0.976 | [5] 0.061 | [6] 0.43 | [7] 0.067 | [8] 0.145 | [9] -0.11 | [10] 0.176

SIN3A (UniProt Q96ST3)
inactive: [1] 0.016 | [2] -0.004 | [3] 0.007 | [4] -0.017 | [5] 0.015 | [6] -0.04 | [7] -0.021 | [8] -0.001 | [9] 0 | [10] 0.015

SLC20A1 (UniProt Q8WUM9)
inactive: [1] 0.022 | [2] -0.028 | [3] -0.013 | [4] -0.08 | [5] 0.05 | [6] 0.072 | [7] -0.015 | [8] 0.027 | [9] 0.002 | [10] -0.054

SLC12A9 (UniProt Q9BXP2)
inactive: [1] -0.045 | [2] 0.009 | [3] -0.027 | [4] -0.004 | [5] -0.066 | [6] -0.005 | [7] -0.047 | [8] -0.026 | [9] -0.035 | [10] -0.015

SFR1 isoform 2 (UniProt Q86XK3)
inactive: [1] 0.023 | [2] -0.006 | [3] 0.003 | [4] -0.012 | [5] -0.005 | [6] -0.006 | [7] 0.041 | [8] 0.026 | [9] 0.06 | [10] 0.016

SH2B1 (UniProt Q9NRF2)
inactive: [1] 0.035 | [2] -0.043 | [3] -0.02 | [4] -0.103 | [5] -0.099 | [6] -0.046 | [7] -0.048 | [8] -0.051 | [9] 0.127 | [10] -0.04

SF3A3 (UniProt Q12874)
inactive: [1] -0.032 | [2] 0.024 | [3] -0.019 | [4] -0.006 | [5] 0.024 | [6] 0 | [7] 0.022 | [8] -0.054 | [9] 0.021 | [10] 0.004

SETMAR (UniProt Q53H47)
inactive: [1] 0.038 | [2] -0.003 | [3] -0.012 | [4] -0.093 | [5] 0.013 | [6] -0.01 | [7] -0.044 | [8] 0.009 | [9] -0.003 | [10] -0.02

SLBP (UniProt Q14493)
inactive: [1] 0.034 | [2] 0.028 | [3] 0.046 | [4] 0.063 | [5] -0.006 | [6] 0.027 | [7] 0.047 | [8] -0.025 | [9] -0.007 | [10] 0.016

SH3BGRL2 (UniProt Q9UJC5)
inactive: [1] -0.014 | [2] 0.027 | [3] 0.006 | [4] -0.014 | [5] 0.035 | [6] 0.03 | [7] -0.004 | [8] 0.036 | [9] -0.072 | [10] 0.053

Pulled one by one from the entries so far, 2 records:
SIN3A (UniProt Q96ST3)
inactive: [1] 0.016 | [2] -0.004 | [3] 0.007 | [4] -0.017 | [5] 0.015 | [6] -0.04 | [7] -0.021 | [8] -0.001 | [9] 0 | [10] 0.015

SLC11A2 isoform 3 (UniProt P49281)
inactive: [1] -0.032 | [2] -0.018 | [3] -0.038 | [4] -0.093 | [5] 0.017 | [6] 0.242 | [7] -0.001 | [8] 0.094 | [9] 0.001 | [10] 0.003

The listing continues:

SETDB1 (UniProt Q15047)
inactive: [1] 0.005 | [2] -0.013 | [3] -0.043 | [4] -0.063 | [5] -0.003 | [6] 0.008 | [7] -0.028 | [8] 0.048 | [9] -0.014 | [10] -0.053

SHOC2 (UniProt Q9UQ13)
inactive: [1] -0.003 | [2] 0.028 | [3] -0.025 | [4] -0.033 | [5] 0.002 | [6] 0.017 | [7] 0.036 | [8] -0.005 | [9] 0.042 | [10] 0.009

SLC1A5 (UniProt Q15758)
inactive: [1] 0.006 | [2] -0.002 | [3] -0.021 | [4] -0.024 | [5] -0.015 | [6] -0.002 | [7] -0.009 | [8] 0.019 | [9] 0.001 | [10] -0.003

SKA1 (UniProt Q96BD8)
inactive: [1] 0.002 | [2] 0.033 | [3] -0.023 | [4] -0.017 | [5] 0.044 | [6] 0.014 | [7] 0.066 | [8] -0.017 | [9] 0.033 | [10] 0.007

SLC10A7 isoform 1 (UniProt Q0GE19)
inactive: [1] 0.078 | [2] -0.014 | [3] -0.015 | [4] -0.056 | [5] -0.047 | [6] -0.015 | [7] -0.019 | [8] -0.051 | [9] 0.015 | [10] 0.046

SERINC1 (UniProt Q9NRX5)
inactive: [1] 0 | [2] -0.04 | [3] 0.03 | [4] -0.084 | [5] 0.049 | [6] -0.101 | [7] -0.012 | [8] 0.048 | [9] -0.03 | [10] -0.053

SKAP2 (UniProt O75563)
inactive: [1] -0.003 | [2] -0.01 | [3] 0.027 | [4] -0.1 | [5] 0.005 | [6] -0.03 | [7] -0.024 | [8] -0.008 | [9] -0.004 | [10] 0.029

SIRT5 (UniProt Q9NXA8)
inactive: [1] 0.056 | [2] 0.017 | [3] 0.029 | [4] 0.039 | [5] 0.002 | [6] 0.004 | [7] 0.029 | [8] 0.008 | [9] 0.013 | [10] -0.035

SERPINF1 (UniProt P36955)
inactive: [1] 0.076 | [2] -0.024 | [3] -0.013 | [4] 0.029 | [5] -0.034 | [6] 0.251 | [7] 0.017 | [8] 0.019 | [9] -0.065 | [10] -0.034

SF3B5 (UniProt Q9BWJ5)
inactive: [1] 0.027 | [2] 0 | [3] 0.07 | [4] -0.014 | [5] -0.044 | [6] 0.094 | [7] 0.014 | [8] 0.041 | [9] 0.011 | [10] -0.021
